The campaign covered roughly 400,000 compounds. About 13,000 (3.2%) were called active. The shares of active, inactive and inconclusive entries below differ from those in the screen. Calls come from the whole dose curve; as a rule, active = well fitted cell-killing curve with a large enough effect; inconclusive = small, poorly fitted or top-dose-only effect, or effect the other way; inactive = flat fitted curve, though single readings scatter. Potencies beside an inconclusive call are fits to weak or partial responses and may not hold up.
test: qHTS assay for MDR1-selective chemotherapeutics: Primary screen using the drug-selected MDR subline cells KB-V1; conditions: KB-V1 MDR cells viability, CellTiter-Glo, 72 h; series mostly up to 46.1 µM; note: nearly all actives have a fitted effect of over 60% in size
Summary of the method: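 In this primary screen, KB-V1 cells overexpressing P-gp are incubated with library compounds (lowest to highest concentration) for 72 h at 37 degrees C before a luminescent ATP viability read.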
Potency is the fitted concentration of half-maximal effect.

For `CCN(C(=O)COC(=O)CSc1ccc(F)cc1)c1c(N)n(Cc2ccccc2)c(=O)[nH]c1=O`, which Potency is on record?
Its Potency is inconclusive: 29.1 µM [rising, single point].

Which Potency does the source give for `Clc1ccc(-c2nc(NCCN3CCOCC3)c3ccccc3n2)cc1` here?
The Potency was active: 4.11 µM.

Which Potency does the source give for `CCc1nn(CC(=O)NCCCN2CCN(C)CC2)c(=O)c2cc3sccc3n12` here?
Its Potency is “inactive”.

For `O=C(CCNS(=O)(=O)c1ccc(OC(F)(F)F)cc1)N1CCN(C/C=C/c2ccccc2)CC1`, which Potency is on record?
Its Potency is active: 6.51 µM.

Which Potency does the source give for `Cn1c(CN2CCOCC2)nc2cc(NC(=O)COc3ccccc3)ccc21` here?
The Potency was active: 16.4 µM.

Which Potency does the source give for `CCOc1ccc(NC(=O)CS(=O)CC(=O)Nc2cccnc2)cc1` (configuration not stated) here?
The Potency was inconclusive: 0.58 µM [rising, full curve, poor fit].

For `COc1cc2c(cc1OC)C(C(=O)O)C(c1ccc(C)o1)N(C)C2=O` (configuration not stated), which Potency is on record?
The Potency was “inactive”.

For `c1ccc(Cn2c(CN3CCCC3)nc3ccccc32)cc1`, which Potency is on record?
The Potency was inconclusive: 11.2 µM [cytotoxic, partial curve].

With `COc1ccc(/C=N\NC(=O)c2ccccc2OC)cc1COc1c(F)c(F)c(F)c(F)c1F` as the molecule, how does the Potency read?
Its Potency is inconclusive: 20.6 µM [cytotoxic, partial curve, poor fit].

For `CCOc1ccc(NC(=O)CC2C(=O)N(c3ccc(C)cc3)C(=O)N2C2CCCCC2)cc1` (configuration not stated), which Potency is on record?
Its Potency is “inactive”.

With `O=C1N=C(N2CCOCC2)SC1=Cc1ccco1` as the molecule, how does the Potency read?
The Potency was inconclusive: 0.82 µM [rising, full curve, poor fit].

Which Potency does the source give for `OC[C@@H]1CN(Cc2ccc(-c3ccccc3)cc2)C[C@H](n2cnc3c(NC4CC4)ncnc32)O1` here?
The Potency was “inactive”.

With `O=C(N/C(=C/c1ccco1)C(=O)N1CCCCCC1)c1cccs1` as the molecule, how does the Potency read?
Its Potency is active: 20.6 µM.

With `CCOc1ccc(NC(=S)NCc2ccc3c(c2)OCO3)cc1` as the molecule, how does the Potency read?
Its Potency is “inactive”.

Which Potency does the source give for `O=C(O)c1sccc1S(=O)(=O)N1CCOCC1` here?
The Potency was “inactive”.

Which Potency does the source give for `C=CCSCC1Nc2cc(Cl)c(S(N)(=O)=O)cc2S(=O)(=O)N1` (configuration not stated) here?
Its Potency is “inactive”.

Which Potency does the source give for `CCOc1ccc(N=C2Sc3nc4ccc(C)cc4cc3CN2CCOC)cc1` here?
The Potency was inconclusive: 7.31 µM [cytotoxic, partial curve, poor fit].

Which Potency does the source give for `N#CCCN(C(=O)COc1ccc(C#N)cc1)c1ccc(F)cc1` here?
The Potency was “inactive”.

Which Potency does the source give for `CCOC(=O)N1CCC(N(CCN(C)C)C(=S)Nc2cccc(OC)c2)CC1` here?
Its Potency is inconclusive: 29.1 µM [rising, single point].

For `CC(/C=N/NC(=O)c1cc(-c2ccccc2)nc2ccccc12)=C\c1ccco1`, which Potency is on record?
The Potency was active: 7.31 µM.

For `CN(Cc1cccs1)C(=O)CNC(=O)c1ccco1`, which Potency is on record?
Its Potency is “inactive”.

With `O=C(CC1CCC1)Nc1cccc2c([N+](=O)[O-])cccc12` as the molecule, how does the Potency read?
The Potency was inconclusive: 32.6 µM [cytotoxic, single point].

Source: PubChem BioAssay AID1347076 (National Center for Advancing Translational Sciences (NCATS), 2019)
